Results deposited as PubChem BioAssay AID1224830 (NIAID, 2016).
In all, the deposit lists about 18,000 reagents; this is a random part of them. About 2,900 of all reagents (16%) were called active. 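Calls are made per well; low scores hint the gene aids the LPS response, high scores that it dampens it.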 Repeated entries: four replicate wells of each siRNA pool.

Aim: 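Regulators of TLR4 signalling towards TNF-alpha in macrophage-like cells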 (primary screen)
Cells: human THP-1 monocytic leukaemia cells, TNF dual-luciferase reporter clone, PMA-differentiated to macrophage-like cells
Knock-down reagent: siRNA pool against human genes, 50 nM
Duration: LPS for 4 h, given about 3 days after siRNA transfection
Challenge: bacterial LPS (TLR4 ligand), 10 ng/ml
Detection: 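TNF firefly reporter luminescence divided by renilla, normalised to the plate median, then turned into a robust z-score for each replicate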
Scale: TNF reporter robust z-score: higher = stronger TNF reporter response to LPS
Hit rule: 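Each well counts as active if its z-score is over 2.8 or under -1.5; controls are left without a call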

no.	target	TNF reporter robust z-score	outcome
1	SNN (GeneID 8303)	0.91	inactive
2	SNN (GeneID 8303)	2.22	inactive
3	SNN (GeneID 8303)	2.48	inactive
4	SNN (GeneID 8303)	2.03	inactive
5	MCM3 (GeneID 4172)	-0.61	inactive
6	MCM3 (GeneID 4172)	-0.36	inactive
7	MCM3 (GeneID 4172)	-0.59	inactive
8	MCM3 (GeneID 4172)	-0.87	inactive
9	TTBK1 (GeneID 84630)	0.22	inactive
10	TTBK1 (GeneID 84630)	0.2	inactive
11	TTBK1 (GeneID 84630)	-0.56	inactive
12	TTBK1 (GeneID 84630)	0.61	inactive
13	ADAMTS5 (GeneID 11096)	1	inactive
14	ADAMTS5 (GeneID 11096)	-0.5	inactive
15	ADAMTS5 (GeneID 11096)	-1.05	inactive
16	ADAMTS5 (GeneID 11096)	0.35	inactive

The list goes on; the last 4 above are carried over.
no.	target	TNF reporter robust z-score	outcome
13	ADAMTS5 (GeneID 11096)	1	inactive
14	ADAMTS5 (GeneID 11096)	-0.5	inactive
15	ADAMTS5 (GeneID 11096)	-1.05	inactive
16	ADAMTS5 (GeneID 11096)	0.35	inactive
17	APOF (GeneID 319)	-1.96	active
18	APOF (GeneID 319)	-0.94	inactive
19	APOF (GeneID 319)	-1.48	inactive
20	APOF (GeneID 319)	-0.11	inactive
21	IL1R1 (GeneID 3554)	-0.86	inactive
22	IL1R1 (GeneID 3554)	-0.14	inactive
23	IL1R1 (GeneID 3554)	0.12	inactive
24	IL1R1 (GeneID 3554)	0.48	inactive
25	FAU (GeneID 2197)	0.57	inactive
26	FAU (GeneID 2197)	2.71	inactive
27	FAU (GeneID 2197)	-0.49	inactive
28	FAU (GeneID 2197)	0.99	inactive
29	TMEM131L (GeneID 23240)	1.36	inactive
30	TMEM131L (GeneID 23240)	1.3	inactive
31	TMEM131L (GeneID 23240)	1.74	inactive
32	TMEM131L (GeneID 23240)	0.54	inactive
33	FLYWCH1 (GeneID 84256)	-0.01	inactive
34	FLYWCH1 (GeneID 84256)	1.77	inactive
35	FLYWCH1 (GeneID 84256)	0.78	inactive
36	FLYWCH1 (GeneID 84256)	1.72	inactive
37	SEMA6D (GeneID 80031)	0.86	inactive
38	SEMA6D (GeneID 80031)	0.38	inactive
39	SEMA6D (GeneID 80031)	-0.79	inactive
40	SEMA6D (GeneID 80031)	1.49	inactive
41	MTSS1 (GeneID 9788)	0.38	inactive
42	MTSS1 (GeneID 9788)	-0.15	inactive
43	MTSS1 (GeneID 9788)	-0.08	inactive
44	ALG5 (GeneID 29880)	1.15	inactive
45	ALG5 (GeneID 29880)	4.28	active
46	ALG5 (GeneID 29880)	3.52	active
47	ALG5 (GeneID 29880)	2.53	inactive
